Test results as given in PubChem BioAssay AID493014 (National Center for Advancing Translational Sciences (NCATS), 2011).
The other results are listed elsewhere or left out. Shown are side measurements of this screen, not its main read-out; they come without a call. Compounds called inactive in the main read-out are mostly missing here. The note in brackets gives the kind of curve behind each potency; many fits are weak.

Test: qHTS Assay to Find Inhibitors of Chronic Active B-Cell Receptor Signaling
Details: ABC-DLBCL IkBa-CBG/CBR reporter, luminescence ratio (green luciferase fused to IkBa over red control in TMD8 lymphoma cells), 4 h
Procedure, shortened: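 TMD8 ABC-DLBCL cells carrying doxycycline-inducible green luciferase fused to IkappaBalpha plus unfused red luciferase were exposed to compounds (up to 46 uM) for 4 hrs at 37C. Activity came from the overlap-corrected green/red luminescence ratio.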

[1] = measured here: CBR red luminescence, cell number
[2] = measured here: IkBa-CBG green luminescence

Cc1cccc(N2C(=O)SC(N(CC(=O)O)c3cccc(C)c3)C2=O)c1 (configuration not stated)
AC50 [1]: 12.6 µM [falling, partial curve, poor fit]

CCc1nc(SCC(=O)NNC(=O)c2ccc(C)cc2)c2ccccc2n1
AC50 [1]: 20 µM [falling, single point]

O=C(OCC(O)C(O)COC(=O)c1ccccc1)c1ccccc1 (configuration not stated)
AC50 [1]: 0.708 µM [rising, partial curve, poor fit]

COc1ccc(C2NC(=S)NC(C)=C2C(=O)Nc2ccccn2)cc1OC (configuration not stated)
AC50 [1]: 0.92 µM [rising, full curve, poor fit]

COc1ccc(CCNC(=O)C2CCC(=O)N2Cc2ccccc2Cl)cc1OC (configuration not stated)
AC50 [1]: 6.31 µM [rising, single point]

O=C(N/N=C\c1cccnc1)c1ccccc1O
AC50 [1]: 5.01 µM [falling, partial curve]

COc1cccc2cc(C(=O)NCc3ccco3)c(=O)oc12
AC50 [1]: 18.4 µM [falling, single point]

CCCc1ccc2oc(C(=O)NCCc3nc(C(=O)OCC)cs3)c(C)c2c1
AC50 [1]: 35.5 µM [falling, single point]

Cc1cccc(CCNc2nc3ccccc3n3nnnc23)c1
AC50 [1]: 5.62 µM [falling, partial curve, poor fit]

N#CCOc1nc(N2CCCCC2)nc(N2CCCCC2)n1
AC50 [1]: 8.91 µM [rising, partial curve] | AC50 [2]: 35.5 µM [falling, single point]

Nc1c(C(=O)Nc2ccccc2F)sc2nc(Cc3ccccc3)cc(C(F)(F)F)c12
AC50 [1]: 10.3 µM [rising, partial curve, poor fit]

O=C1CN(C(=O)COC(=O)c2ccc(C(F)(F)F)cc2)c2ccccc2N1
AC50 [1]: 2.91 µM [rising, partial curve, poor fit]

Cc1ccc(C(=O)ONC(=O)c2ccc(Cl)cc2)cc1[N+](=O)[O-]
AC50 [1]: 15.8 µM [rising, single point]

O=C1OCCN1C(=O)[C@H]1[C@H](c2ccc(Cl)cc2)C(c2ccccc2)=NN1c1ccc(Br)cc1
AC50 [1]: 5.8 µM [rising, single point]

COc1ccc(CC(=O)Nc2cccc3ccccc23)cc1OC
AC50 [1]: 35.5 µM [falling, single point]

Nc1c(C(=O)NCc2ccco2)nnn1-c1ccccc1
AC50 [1]: 20 µM [falling, single point]

CCCCc1ccc(S(N)(=O)=O)cc1
AC50 [1]: 35.5 µM [rising, single point]

Cn1cc(Br)c(C(=O)Nc2sc3c(c2C(N)=O)CCC3)n1
AC50 [1]: 6.51 µM [falling, single point] | AC50 [2]: 29.1 µM [falling, single point]

Cc1cccc(-n2cc(CN3CCCN(C=O)CC3)c(-c3cccc(F)c3)n2)c1
AC50 [1]: 2.82 µM [rising, full curve]

Cc1cccc(NC(=O)/C(C#N)=C/c2cccc([N+](=O)[O-])c2)n1
AC50 [1]: 28.2 µM [falling, single point]

O=C(c1ccc2ccccc2n1)N1CCN(c2ccccc2)CC1
AC50 [1]: 23.1 µM [rising, partial curve, poor fit]

COc1ccccc1-c1cc2nc(C)c(CCC(=O)NC(C)CCc3ccco3)c(C)n2n1 (configuration not stated)
AC50 [1]: 2.06 µM [falling, partial curve]

O=C(Nc1cccc(Cl)c1)C1=Cc2cc(Cl)ccc2OC1
AC50 [1]: 6.51 µM [rising, single point]

Cc1cccc(NC(=S)N/N=C(\c2ccccc2)C(C)C)c1
AC50 [1]: 3.55 µM [rising, full curve]

COc1ccc(Cn2c(C3CCCCC3)nc3c(c(=O)c4ccccc4n3C)c2=O)cc1
AC50 [1]: 10 µM [rising, partial curve, poor fit]

COC(=O)c1cccc(NC(=O)c2ccc(OC)c(Cl)c2)c1
AC50 [1]: 20 µM [falling, partial curve, poor fit]

Cc1ccc(NC(=O)C2=C(O)CCn3c2nc2ccccc23)cc1
AC50 [1]: 2.31 µM [falling, partial curve]

Cc1cc(C)c(C#N)c(SCC(=O)c2cccs2)n1
AC50 [1]: 7.31 µM [falling, partial curve]

CC(C)(C)CC(C)(C)NC1=CC(=O)OC12CCCCC2
AC50 [1]: 18.4 µM [rising, single point]

COc1cc2c(c3oc(=O)cc(CC(=O)O)c13)CCC(C)(C)O2
AC50 [1]: 10 µM [rising, partial curve, poor fit]

COc1c(O)cc2c(c1O)[C@@H]1O[C@H](CO)[C@@H](O)[C@H](O)C1OC2=O (some centres not stated)
AC50 [1]: 18.4 µM [rising, partial curve, poor fit]

CC(=O)C1=C(O)CC(c2ccccc2)CC1=NCCc1ccccc1 (configuration not stated)
AC50 [1]: 10 µM [falling, partial curve]

CCCCS(=O)(=O)N1CCCC(C(=O)Nc2ccc3c(c2)CCC3)C1 (configuration not stated)
AC50 [1]: 15.8 µM [rising, single point]

O=S1(=O)N=C(Nc2ccc(N3CCOCC3)c(Cl)c2)c2ccccc21
AC50 [1]: 0.112 µM [rising, full curve, poor fit]

O=C(COC(=O)Cc1ccc(-c2ccccc2)cc1)NCc1ccc(F)cc1
AC50 [1]: 29.1 µM [rising, single point]

Cc1cc(SCCOc2ccccc2)nc(N)n1
AC50 [1]: 35.5 µM [falling, single point]

C[C@]12c3[nH]c4cc(-c5ccco5)ccc4c3CCN1C(=O)[C@@H](CC(=O)NCCN1CCOCC1)C[C@@H]2C(=O)N1CCOCC1
AC50 [1]: 16.4 µM [rising, single point]

COCCn1nnnc1CN(CCCN1CCOCC1)Cc1cc2c(C)ccc(C)c2[nH]c1=O
AC50 [1]: 23.1 µM [rising, single point]

CCCOC(=O)c1ccc(O)c(OC)c1
AC50 [1]: 20 µM [rising, partial curve] | AC50 [2]: 35.5 µM [falling, single point]

O=C(CS(=O)(=O)c1ccccc1)N1CCCCC1
AC50 [1]: 35.5 µM [rising, single point]

CCOc1c(C(N)=O)c(-c2ccccc2)c2c(=O)[nH]c3ccccc3n12
AC50 [1]: 2.82 µM [falling, full curve, poor fit]

CCOC(=O)c1sc(NC(=O)Nc2ccc(Cl)cc2)cc1C
AC50 [1]: 29.1 µM [falling, single point]

CCc1c(C(=O)N/N=C/c2ccco2)nnn1-c1nonc1N
AC50 [1]: 12.6 µM [falling, partial curve, poor fit]

COc1ccc2c(c1)O[C@H](c1ccc3c(c1)OCO3)[C@@H](OC(=O)N[C@H](C)C1CCCCC1)C2=O
AC50 [1]: 32.6 µM [rising, partial curve, poor fit]

CNC(=O)c1cc(Nc2nnc(C)c3ccccc23)ccc1OC
AC50 [1]: 8.2 µM [falling, partial curve, poor fit]

CCCCC(=O)Nc1sc2c(c1C(N)=O)CCC2
AC50 [1]: 32.6 µM [falling, single point]

O=C(c1ccc2nc(-c3ccco3)c(-c3ccco3)nc2c1)N1CCN(c2ncccn2)CC1
AC50 [1]: 20 µM [falling, single point]

Nc1c(S(=O)(=O)c2ccccc2)c2nc3ccccc3nc2n1Cc1ccco1
AC50 [1]: 3.55 µM [falling, full curve, poor fit]

CC(C)CC(=O)N1CCN(S(=O)(=O)c2ccc(F)cc2)CC1
AC50 [1]: 5.8 µM [falling, single point]

Cn1c(=O)c2c(-c3ccccc3)n(-c3ccccc3O)cc2n(C)c1=O
AC50 [1]: 4.47 µM [rising, partial curve, poor fit]

CCC(C)c1ccccc1NC(=O)COC(=O)c1ccc2[nH]c3c(c2c1)CCCC3 (configuration not stated)
AC50 [1]: 20.6 µM [falling, partial curve, poor fit]

CC1CC(=O)c2c(cc3c(-c4c(O)cc(O)c5c(O)c6c(cc45)OC(C)CC6=O)c(O)cc(O)c3c2O)O1 (configuration not stated)
AC50 [1]: 31.6 µM [rising, single point]

COc1ccc(Nc2cc(C)c3cc([N+](=O)[O-])ccc3n2)cc1
AC50 [1]: 8.91 µM [falling, partial curve, poor fit]

CN1CCN(c2nc(-c3ccccc3)nc(-c3ccc(F)cc3)c2C#N)CC1
AC50 [1]: 3.16 µM [rising, partial curve]

COc1ccc(CN2C(=O)CSC2c2ccncc2)cc1 (configuration not stated)
AC50 [1]: 5.62 µM [rising, single point]

COc1ccc(-c2ccc(-c3cc(=O)oc4cc(OC)c(OC)c(OC)c34)cc2)cc1F
AC50 [1]: 1.84 µM [rising, full curve, poor fit]

COc1ccccc1NC(=O)NCC1CC1(Cl)Cl (configuration not stated)
AC50 [1]: 0.891 µM [rising, full curve, poor fit]

CCOC(=O)c1c(C)[nH]c(C(=O)CN2C(=O)NC(C)(c3ccc4ccccc4c3)C2=O)c1C (configuration not stated)
AC50 [1]: 22.4 µM [falling, single point]

COc1ccc(S(=O)(=O)N2CCCC(C(=O)N3CCCCCC3)C2)cc1 (configuration not stated)
AC50 [1]: 10.3 µM [rising, partial curve]

O=C(Nc1scc(-c2ccc(F)cc2)c1C(=O)O)c1ccco1
AC50 [1]: 29.1 µM [falling, single point]

Cc1ccc(S(=O)(=O)Cc2ccc(C(=O)OCc3ccccc3)cc2)cc1
AC50 [1]: 0.92 µM [rising, single point]

COc1ccccc1CNC(=O)CCNC(=O)Cn1ccc2ccccc2c1=O
AC50 [1]: 32.6 µM [falling, single point]

Cc1ccc2c(C(=O)CCl)c(C)[nH]c2c1
AC50 [2]: 35.5 µM [falling, single point]

Nc1nn2cc(-c3ccc(Br)cc3)nc2c2ccccc12
AC50 [1]: 11.2 µM [falling, single point]
